Experimental data from patent US9629830B2, “EphA4 inhibitors as neuroprotective agents” (The Hong Kong University of Science and Technology, priority 2013, dated 2017).
For at least one compound, name, drawing or mass did not settle the structure. Some entries repeat one wording, which the source may state once for all of them.

The chains behind the UniProt entries cited, without tags or fusion partners. Residues count along the entry.
UniProt D3ZZK3, 20-986: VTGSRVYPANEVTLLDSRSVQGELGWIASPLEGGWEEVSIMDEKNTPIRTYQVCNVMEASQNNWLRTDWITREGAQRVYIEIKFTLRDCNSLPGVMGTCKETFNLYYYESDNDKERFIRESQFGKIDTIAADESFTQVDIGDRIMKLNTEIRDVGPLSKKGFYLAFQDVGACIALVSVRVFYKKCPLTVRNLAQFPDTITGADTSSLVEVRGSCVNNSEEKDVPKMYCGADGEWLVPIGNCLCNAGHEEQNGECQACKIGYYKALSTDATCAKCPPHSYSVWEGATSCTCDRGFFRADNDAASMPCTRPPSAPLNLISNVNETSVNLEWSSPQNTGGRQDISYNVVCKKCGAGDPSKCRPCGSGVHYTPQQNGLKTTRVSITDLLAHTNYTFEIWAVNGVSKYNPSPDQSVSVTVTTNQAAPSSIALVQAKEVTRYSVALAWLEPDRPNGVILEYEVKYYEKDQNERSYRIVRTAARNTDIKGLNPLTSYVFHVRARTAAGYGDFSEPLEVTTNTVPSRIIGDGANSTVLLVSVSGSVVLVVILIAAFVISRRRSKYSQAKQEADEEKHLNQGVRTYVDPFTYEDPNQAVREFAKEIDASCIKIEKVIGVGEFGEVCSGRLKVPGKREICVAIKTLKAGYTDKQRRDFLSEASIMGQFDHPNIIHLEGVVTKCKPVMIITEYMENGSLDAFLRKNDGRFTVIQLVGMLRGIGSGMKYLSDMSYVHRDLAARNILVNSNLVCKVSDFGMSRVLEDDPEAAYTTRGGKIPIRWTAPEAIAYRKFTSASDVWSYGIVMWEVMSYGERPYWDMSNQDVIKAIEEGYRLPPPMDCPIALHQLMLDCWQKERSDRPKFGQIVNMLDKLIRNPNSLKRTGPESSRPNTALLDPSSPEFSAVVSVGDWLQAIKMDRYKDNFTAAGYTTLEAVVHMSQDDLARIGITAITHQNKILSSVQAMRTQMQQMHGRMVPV

Target: T1, EphA4 (Rattus norvegicus, UniProt D3ZZK3)
T1 construct: endogenous in cells; host or cells: primary rat cortical neurons (A5), primary rat hippocampal neurons (A7)
Assay: Ephrin-A1-induced EphA4 cluster assay in cultured hippocampal neurons
Type: cell-based
Details: 50 μM
Protocol: For EphA4 clustering, neurons were stained with anti-EphA4 and anti-Tau-1 antibodies. For the growth cone collapse assay, neurons were stained with Alexa Fluor 555-conjugated phalloidin (Molecular Probes) for filamentous actin and anti-Tau-1 antibody for axons. Collapsed growth cones were scored in a double-blinded manner. The experiments were repeated at least 3 times, and >50 neurons were analyzed for each experiment. Data are presented as mean±SEM.
Rat hippocampal neurons were seeded on 48-well plates coated with poly-D-lysine (50 μg/mL) at 6000 cells per well. Neurons were incubated with Neurobasal medium (Invitrogen) supplemented with 2% B27 (Invitrogen). […] Neurons were then immunostained with anti-EphA4 and anti-Tau-1 antibodies. The cellular imaging and quantification of EphA4 clusters was performed using IN Cell Analyzer 6000 high content assay system (GE Healthcare). EphA4 clusters were quantified by calculating the proportion of total area of EphA4 clusters on axons against Tau positive area. Statistical analysis was performed with one-way ANOVA followed by Newman-Keuls Multiple Comparison Test (Prism 5 GraphPad Software).

SMILES	potency on EphA4 inhibition (EphA4 clusters) compared to Rhy (words)
CC[C@H]1CN2CC[C@]3(C(=O)N(Cc4cccc(OC)c4)c4ccccc43)[C@@H]2C[C@@H]1/C(=C\OC)C(=O)OC [RHY-1]	significantly reduced the EphA4 clusters compared to Rhy
CC[C@H]1CN2CC[C@]3(C(=O)N(Cc4ccccc4)c4ccccc43)[C@@H]2C[C@@H]1/C(=C\OC)C(=O)OC [RHY-6]	significantly reduced the EphA4 clusters compared to Rhy
CC[C@H]1CN2CC[C@]3(C(=O)N(Cc4ccc(C(C)(C)C)cc4)c4ccccc43)[C@@H]2C[C@@H]1/C(=C\OC)C(=O)OC [RHY-7]	significantly reduced the EphA4 clusters compared to Rhy
